At least one compound was matched to its structure with a doubt left.
Columns and labels:
[1] = system: Doxycycline-inducible YAP/TAZ-knockdown human colorectal cancer organoids; experiment: Experimental Example 12: doxycycline-inducible YAP/TAZ-knockdown organoid xenograft, irinotecan; format: in vivo, NOG mice; conditions: irinotecan together with doxycycline to knock down YAP/TAZ
Protocol: The upper row in FIG. 15 is a schematic view showing a schedule of this experiment. Doxycycline-inducible YAP/TAZ-knockdown human colorectal cancer organoids were produced and xenotransplanted into the subcutis of immunodeficient NOG mice. Thereafter, irinotecan was administered. […] The scale bar is 100 μm. In the lower row in FIG. 15, “Control” indicates a result of a group into which neither irinotecan nor doxycycline has been administered, “Dox” indicates a result of a group into which only doxycycline was administered, “Irinotecan” indicates a result of a group into which only irinotecan was administered, and “Irinotecan +Dox” indicates a result of a group into which irinotecan and doxycycline were administered. FIG. 16 is a group showing change in tumor size in mice of each group over time. As a result, in FIG. 16, “Control,” “Dox,” “Irinotecan,” and “Irinotecan +Dox” show the same meaning as in the lower row in FIG. 15. In addition, “*” indicates a significant difference at p<0.05.

[2] = system: Doxycycline-inducible YAP/TAZ-knockdown human colorectal cancer organoids; experiment: Experimental Example 13: YAP/TAZ-knockdown organoid xenograft, doxycycline after irinotecan; format: in vivo, NOG mice
Protocol: How the inhibition of YAP signaling affects tumor regrowth after chemotherapy was studied. The upper row in FIG. 17 is a schematic view showing a schedule of this experiment. Doxycycline-inducible YAP/TAZ-knockdown human colorectal cancer organoids were produced and xenotransplanted into the subcutis of immunodeficient NOG mice. Thereafter, irinotecan was administered once a week for three times, followed by administering doxycycline over a long period of time to inhibit YAP signaling. Thereafter, administration of doxycycline was discontinued. The lower row in FIG. 17 is a group showing change in tumor size in mice of each group over time. In the lower row in FIG. 17, “Irinotecan” indicates a result of the group into which only irinotecan was administered, and “Irinotecan +Dox” indicates a result of the group into which irinotecan and doxycycline were administered.

C[C@H]1c2cccc(O)c2C(=O)C2=C(O)[C@]3(O)C(=O)C(C(N)=O)=C(O)[C@@H](N(C)C)[C@@H]3[C@@H](O)[C@@H]21 [doxycycline]
antitumor effect of irinotecan and maintenance of the dormant state of cancer stem cells [1]: enhanced | nuclear translocation of YAP in graft [1]: nuclear translocation of YAP was inhibited | tumor regrowth after discontinuation ([2]; administration of doxycycline discontinued): tumor regrowth was recognized | tumor size ([2]; doxycycline (YAP/TAZ knockdown) after irinotecan): tumor size was reduced to a minimum

From patent US20260276624A1, “PROPHYLACTIC OR THERAPEUTIC AGAINST EXACERBATION OR RECURRENCE OF CANCER, AND SCREENING METHOD THEREFOR” (KEIO UNIVERSITY, priority 2022, published 2026)
